Among the data in publication PMC6964919 are binding values, retold here.

The labels stand for the following.
B1: G3BP2 (protein, UniProt P97379 1-482)
chain: MVMEKPSPLLVGREFVRQYYTLLNKAPEYLHRFYGRNSSYVHGGVDASGKPQEAVYGQNDIHHKVLSLNFSECHTKIRHVDAHATLSDGVVVQVMGLLSNSGQPERKFMQTFVLAPEGSVPNKFYVHNDMFRYEDEVFGDSEPELDEESEDEVEEEQEDRQPSPEPVQENANSAYYDAHPVTNGIEEPLEESSHEPEPEPESETKTEELKPQVEEKHLEELEEKSATPPPAEPASLPQEPPKAFSWASVTSKNLPPSGTVSSSGIPPHVKAPVSQPRVDAKPEVQSQPPRVREQRPRERPGFPPRGPRPGRGDMEQNDSDNRRIIRYPDSHQLFVGNLPHDIDENELKEFFMSFGNVVELRINTKGVGGKLPNFGFVVFDDSEPVQRILIAKPIMFRGEVRLNVEEKKTRAARERETRGGGDDRRDIRRNDRGPGGPRGIVGGGMMRDRDGRGPPPRGGMTQKLGSGRGTGQMEGRFTGQRR
B2: PUM3 (protein, UniProt Q8BKS9 1-647)
chain: MEVKGKKKFTGKSPQTSQGKNKFHKNSESSSSKTFPRKAVKEGGPKVTSKNFEKGATKPGKKGVKQFKNKPQGGKGPKDKFQKANKFSKKRKFQPDGESDESGAKKPKWDDFKKKKKELKQSRQLSDKTNYDIVVRAKHIWESLRRKDCDKEKRVKLMSDLQKLIQGKIKTIAFAHDSTRVIQCFIQYGNEEQRKQAFQELQGDLVELSKAKYSRNIVKKFLMYGSKPQVAEIIRSFKGHVRKMLRHSEASAIVEYAYNDKAILEQRNMLTEELYGNTFQLYKSADHPTLDKVLELQPAKLELIMDEMKQILTPMAQKEAVIKHSLVHKVFLDFFTYAPPKPRSELIEAIREAVVYLAHTHDGARVAMHCLWHGTPKDRKVIVKTMKTYVEKVANGQYSHLVLLAAFDCIDDTKLVKQIIISEIISSLPSIVNDKYGRKVLLYLMSPRDPAHTVPELIELLQKGDGNAHSKKDTAIRRRELLESISPALLSYLQGHTQEVVLDKSACVLVSDMLGSATGDVQPAMDAIASLAAAELHPGGKDGELHVAEHPAGHLVLKWLLEQDKKMKESGKEGCFAKTLVERVGMKNLKSWASINRGAIILSSLLQSCDQEVVNKVKGGLKPLIPTLEKNKSSSRGIQTLLEKLTA
B3: PABP2 (protein, UniProt Q8CCS6 1-302)
chain: MAAAAAAAAAAGAAGGRGSGPGRRRHLVPGAGGEAGEGDPGGAGDYGNGLESEELEPGELLPEPEPEEEPPRPRAPPGAPGPGPGSGAPGSQEEEEEPGLVEADPGDGAIEDPELEAIKARVREMEEEAEKLKELQNEVEKQMNMSPPPGNAGPVIMSLEEKMEADARSIYVGNVDYGATAEELEAHFHGCGSVNRVTILCDKFSGHPKGFAYIEFSDKESVRTSLALDESLFRGRQIKVIPKRTNRPGISTTDRGFPRSRYRARTTNYNSSRSRFYSGFNSRPRGRIYRGRARATSWYSPY
B4: eIF2Bepsilon (protein, UniProt Q8CHW4 1-717)
chain: MAATAAVPGAAAGRASKRGGGGSGGGGTQGAEEEPPPPLQAVLVADSFNRRFFPISKDQPRVLLPLANVALIDYTLEFLTATGVQETFVFCCWKAAQIKEHLQKSKWCHPTSPNVVRIITSELYRSLGDVLRDVDAKALVRSDFLLIYGDVISNINICRALEEHRLRRKLEKNVSVMTMVFKESSPSHPTRCHEDNVVMAVDSATNRVLHFQKTQGLRRFSFPLSLFQGSGDGVEIRYDLLDCHISICSPQVAQLFTDNFDYQTRDDFVRGILMNEEVLGNQIHLHVTTREYGARVSNLHMYSAVCADVIRRWVYPLTPEVNFTDSTTQSYTHSRHNIYRGPEVSLGHGSVLEENVLLGAGTVIGSNCSITNSVIGPNCHIGDNVVLDQAYLWQGVRVAAGAQIHQSLLCDRAEVKERVKLKPYCVLTSQVVVGPDITLPEGSVISLHPPDAEEDEDDGQFSDDSGADQEKEKVKLKGYNPAEVGLEGQGYLWKAEGVNSKEDEELRQSLWGLMIKTEEESETESEGSVDPEELDSRAGSPQLDDIRVFQNEVLGTLQRGREENISCENLVLEINSLKHAYNISLKEVMQVLTLVVLEFPLQQVDGLLDPNRYCALLLPLLKAWSPVLRNYIKRAADHLEALAAIEDFFLEHETLVTSMAKVLMAFYQLEILAEETILSWFSQRDTTDEGQQLRKNQQLQRFIQWLREAEEESSEDD
B5: eIF2Balpha (protein, UniProt Q99LC8 1-305)
chain: MEDGELIEYFKSQMKGDPKMASAVAAIQTLLEFLKRDKGETLQGLRANLTYAIKTLCGVDSSVAVSSGGELFLRFISLTSLEYSDYSKCKKIMIERGELFLRRISLSRNKIANLCHTFIKDGARILTHAYSRVVLRVLEEAVAAKKRFSVYITESQPDLSGKKMAKALSHLNVPVTVVLDAAVGYIMEKADLVIVGAEGVVENGGIINKIGTNQMAVCAKAQNKPFYVVAESFKFVRLFPLNQEDVPDKFKYKADTLKSVQTGQDLKEEHPWVDYTSPSLITLLFTDLGVLTPSAVSDELIKLYL

These are yes or no findings as the source states them, for the method shown. In cells and extracts the contact can be indirect. These calls come from enrichment with a bait or labelling near it, and not all partners need be listed.

The target in this test is GFP-tagged G3BP1 (Ras-GTPase activating SH3 domain binding protein 1). The test can be described thus: affinity purification with mass spectrometry.
Turning to B1, the binding entry is listed as “binds”.

Regarding B2, the binding result is reported as “binds”. The same measure for B3: “binds”.

In the case of B4, the binding entry is listed as “binds”. Under B5 stands “binds”.
